US20240207454A1, “NEURO-BEHAVIORAL ASSAY FOR PHYSIOLOGICAL EVALUATION OF WATER-SOLUBLE ANESTHETICS” (Northeastern University, priority 2022, published 2024)
At least one structure is not confirmed: it was looked up by name or label, or the drawing left a doubt.

Amino acid sequences for entries named in this document (tags omitted).
UniProt P22460, whole entry: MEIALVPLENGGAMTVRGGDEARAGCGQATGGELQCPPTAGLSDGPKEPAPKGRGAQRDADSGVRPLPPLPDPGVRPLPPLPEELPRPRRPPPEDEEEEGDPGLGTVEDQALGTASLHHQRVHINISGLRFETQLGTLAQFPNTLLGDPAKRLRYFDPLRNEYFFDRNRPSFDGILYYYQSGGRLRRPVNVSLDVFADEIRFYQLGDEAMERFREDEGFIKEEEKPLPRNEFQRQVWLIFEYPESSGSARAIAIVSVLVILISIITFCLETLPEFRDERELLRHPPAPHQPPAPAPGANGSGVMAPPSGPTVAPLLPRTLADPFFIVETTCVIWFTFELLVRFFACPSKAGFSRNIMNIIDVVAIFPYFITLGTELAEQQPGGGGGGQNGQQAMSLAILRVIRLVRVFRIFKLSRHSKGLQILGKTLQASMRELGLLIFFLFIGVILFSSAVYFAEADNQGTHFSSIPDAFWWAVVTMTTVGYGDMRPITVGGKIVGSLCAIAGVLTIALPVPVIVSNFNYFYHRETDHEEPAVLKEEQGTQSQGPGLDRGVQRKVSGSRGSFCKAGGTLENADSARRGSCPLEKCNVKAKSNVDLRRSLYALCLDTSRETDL

Columns and labels:
[1] = system: isolated pacemaker nucleus; assay: Extracellular recording from the isolated pacemaker nucleus (in vitro preparation); design: species or system Apteronotus leptorhynchus
[2] = target: Kv1.5 (Homo sapiens, UniProt P22460); settings: cited from earlier work

Structure (SMILES)	Reversibility after switching back to ACSF only ([1]; MS-222 0.001%-0.06%)	Effect on synchronized oscillation frequency of the isolated pacemaker nucleus ([1]; MS-222 0.001%-0.06% in ACSF, 2 min (4 min in F), within a few seconds)	Effect on amplitude of the neural oscillations ([1]; highest concentrations of MS-222 (F-I: 0.04%-0.06%))	Effect on Kv1.5 [2]
CCOC(=O)c1cccc(N)c1 [MS-222, 3-aminobenzoic acid ethyl ester methanesulfonate]	the oscillation frequency recovers	dramatic decrease in the frequency of the synchronized oscillations	the amplitude of the neural oscillations collapses	
C=CCc1ccc(OC)c(OC)c1 [methyl-eugenol]				inhibitory effects
